Differences between knockout arms are mostly noise.
System: SKBR3
Test: relative cell number vs DMSO control (72 h) (% of DMSO); higher = less growth inhibition (more cells)
Description: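 QMAP-Seq: a pool of 5 breast cancer cell lines (ZR-75-1, SKBR3, HCC-38, MDA-MB-231, BT-20), each carrying 12 doxycycline-inducible Cas9 sgRNA perturbations (11 knockouts plus non-targeting sgNT), was treated with compounds for 72 h at four 10-fold doses (10 nM-10 uM or 1 nM-1 uM range). Barcodes were amplified and sequenced, and cell number was interpolated from 293T spike-in standard curves. The result is expressed as % of the median of DMSO wells. Two biological replicates.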

C[C@@H](Oc1cc(-c2cnn(C3CCNCC3)c2)cnc1N)c1c(Cl)ccc(F)c1Cl [Crizotinib]
Conditions | relative cell number
sgRNA knockout: sgATF3, 10 nM | 76.9
sgRNA knockout: sgATF3, 100 nM | 84.8
sgRNA knockout: sgATF3, 1000 nM | 80.2
sgRNA knockout: sgATF3, 10000 nM | 27.4
sgRNA knockout: sgATF4, 10 nM | 96.7
sgRNA knockout: sgATF4, 100 nM | 82.8
sgRNA knockout: sgATF4, 1000 nM | 80.51
sgRNA knockout: sgATF4, 10000 nM | 25.9
sgRNA knockout: sgATF6, 10 nM | 82
sgRNA knockout: sgATF6, 100 nM | 88.2
sgRNA knockout: sgATF6, 1000 nM | 67.8
sgRNA knockout: sgATF6, 10000 nM | 29.2
sgRNA knockout: sgATG7, 10 nM | 103
sgRNA knockout: sgATG7, 100 nM | 71.2
sgRNA knockout: sgATG7, 1000 nM | 70.2
sgRNA knockout: sgATG7, 10000 nM | 31.5
sgRNA knockout: sgERN1, 10 nM | 94.3
sgRNA knockout: sgERN1, 100 nM | 106
sgRNA knockout: sgERN1, 1000 nM | 85.9
sgRNA knockout: sgERN1, 10000 nM | 24.1
sgRNA knockout: sgHSF1, 10 nM | 91.8
sgRNA knockout: sgHSF1, 100 nM | 88.5
sgRNA knockout: sgHSF1, 1000 nM | 57.3
sgRNA knockout: sgHSF1, 10000 nM | 29.7
sgRNA knockout: sgHSF2, 10 nM | 107
sgRNA knockout: sgHSF2, 100 nM | 90.6
sgRNA knockout: sgHSF2, 1000 nM | 62.9
sgRNA knockout: sgHSF2, 10000 nM | 26.3
sgRNA knockout: sgKEAP1, 10 nM | 79.6
sgRNA knockout: sgKEAP1, 100 nM | 83
sgRNA knockout: sgKEAP1, 1000 nM | 69.3
sgRNA knockout: sgKEAP1, 10000 nM | 29.2
sgRNA knockout: sgNFE2L2, 10 nM | 78.8
sgRNA knockout: sgNFE2L2, 100 nM | 81.8
sgRNA knockout: sgNFE2L2, 1000 nM | 73.4
sgRNA knockout: sgNFE2L2, 10000 nM | 24.1
sgRNA knockout: sgSLC35F2, 10 nM | 92.7
sgRNA knockout: sgSLC35F2, 100 nM | 105
sgRNA knockout: sgSLC35F2, 1000 nM | 75.3
sgRNA knockout: sgSLC35F2, 10000 nM | 26.1
sgRNA knockout: sgXBP1, 10 nM | 107
sgRNA knockout: sgXBP1, 100 nM | 102
sgRNA knockout: sgXBP1, 1000 nM | 74.2
sgRNA knockout: sgXBP1, 10000 nM | 33.1

CN(C)/N=N/c1[nH]cnc1C(N)=O [Dacarbazine]
Conditions | relative cell number
sgRNA knockout: sgATF3, 10 nM | 88.9
sgRNA knockout: sgATF3, 100 nM | 92.2
sgRNA knockout: sgATF3, 1000 nM | 105
sgRNA knockout: sgATF3, 10000 nM | 93.5
sgRNA knockout: sgATF4, 10 nM | 130
sgRNA knockout: sgATF4, 100 nM | 102
sgRNA knockout: sgATF4, 1000 nM | 99.8
sgRNA knockout: sgATF4, 10000 nM | 101
sgRNA knockout: sgATF6, 10 nM | 98.2
sgRNA knockout: sgATF6, 100 nM | 95.4
sgRNA knockout: sgATF6, 1000 nM | 98.5
sgRNA knockout: sgATF6, 10000 nM | 115
sgRNA knockout: sgATG7, 10 nM | 103
sgRNA knockout: sgATG7, 100 nM | 111.8
sgRNA knockout: sgATG7, 1000 nM | 100
sgRNA knockout: sgATG7, 10000 nM | 110
sgRNA knockout: sgERN1, 10 nM | 120
sgRNA knockout: sgERN1, 100 nM | 103
sgRNA knockout: sgERN1, 1000 nM | 113
sgRNA knockout: sgERN1, 10000 nM | 95.6
sgRNA knockout: sgHSF1, 10 nM | 99
sgRNA knockout: sgHSF1, 100 nM | 88.4
sgRNA knockout: sgHSF1, 1000 nM | 86.5
sgRNA knockout: sgHSF1, 10000 nM | 114
sgRNA knockout: sgHSF2, 10 nM | 106.3
sgRNA knockout: sgHSF2, 100 nM | 82.1
sgRNA knockout: sgHSF2, 1000 nM | 98.5
sgRNA knockout: sgHSF2, 10000 nM | 93.5
sgRNA knockout: sgKEAP1, 10 nM | 107
sgRNA knockout: sgKEAP1, 100 nM | 77.8
sgRNA knockout: sgKEAP1, 1000 nM | 89.5
sgRNA knockout: sgKEAP1, 10000 nM | 92.3
sgRNA knockout: sgNFE2L2, 10 nM | 98.2
sgRNA knockout: sgNFE2L2, 100 nM | 71.2
sgRNA knockout: sgNFE2L2, 1000 nM | 111
sgRNA knockout: sgNFE2L2, 10000 nM | 98.2
sgRNA knockout: sgSLC35F2, 10 nM | 81.7
sgRNA knockout: sgSLC35F2, 100 nM | 86.9
sgRNA knockout: sgSLC35F2, 1000 nM | 105
sgRNA knockout: sgSLC35F2, 10000 nM | 96.9
sgRNA knockout: sgXBP1, 10 nM | 80.3
sgRNA knockout: sgXBP1, 100 nM | 99.6
sgRNA knockout: sgXBP1, 1000 nM | 106
sgRNA knockout: sgXBP1, 10000 nM | 113

Cc1nc(Nc2ncc(C(=O)Nc3c(C)cccc3Cl)s2)cc(N2CCN(CCO)CC2)n1 [Dasatinib]
Conditions | relative cell number
sgRNA knockout: sgATF3, 10 nM | 113
sgRNA knockout: sgATF3, 100 nM | 112
sgRNA knockout: sgATF3, 1000 nM | 114
sgRNA knockout: sgATF3, 10000 nM | 48.5
sgRNA knockout: sgATF4, 10 nM | 107.1
sgRNA knockout: sgATF4, 100 nM | 85.5
sgRNA knockout: sgATF4, 1000 nM | 89.9
sgRNA knockout: sgATF4, 10000 nM | 37.5
sgRNA knockout: sgATF6, 10 nM | 93.9
sgRNA knockout: sgATF6, 100 nM | 83.4
sgRNA knockout: sgATF6, 1000 nM | 90.1
sgRNA knockout: sgATF6, 10000 nM | 37.6
sgRNA knockout: sgATG7, 10 nM | 102.5
sgRNA knockout: sgATG7, 100 nM | 95.3
sgRNA knockout: sgATG7, 1000 nM | 126.2
sgRNA knockout: sgATG7, 10000 nM | 39.8
sgRNA knockout: sgERN1, 10 nM | 68.9
sgRNA knockout: sgERN1, 100 nM | 96.9
sgRNA knockout: sgERN1, 1000 nM | 107
sgRNA knockout: sgERN1, 10000 nM | 52.7
sgRNA knockout: sgHSF1, 10 nM | 87.1
sgRNA knockout: sgHSF1, 100 nM | 99.7
sgRNA knockout: sgHSF1, 1000 nM | 93.7
sgRNA knockout: sgHSF1, 10000 nM | 41.4
sgRNA knockout: sgHSF2, 10 nM | 90.01
sgRNA knockout: sgHSF2, 100 nM | 91.6
sgRNA knockout: sgHSF2, 1000 nM | 92.8
sgRNA knockout: sgHSF2, 10000 nM | 40.8
sgRNA knockout: sgKEAP1, 10 nM | 114
sgRNA knockout: sgKEAP1, 100 nM | 83.9
sgRNA knockout: sgKEAP1, 1000 nM | 100
sgRNA knockout: sgKEAP1, 10000 nM | 43.8
sgRNA knockout: sgNFE2L2, 10 nM | 99
sgRNA knockout: sgNFE2L2, 100 nM | 88.9
sgRNA knockout: sgNFE2L2, 1000 nM | 87.9
sgRNA knockout: sgNFE2L2, 10000 nM | 48.4
sgRNA knockout: sgSLC35F2, 10 nM | 108
sgRNA knockout: sgSLC35F2, 100 nM | 77.8
sgRNA knockout: sgSLC35F2, 1000 nM | 91.6
sgRNA knockout: sgSLC35F2, 10000 nM | 37.9
sgRNA knockout: sgXBP1, 10 nM | 83.1
sgRNA knockout: sgXBP1, 100 nM | 71.8
sgRNA knockout: sgXBP1, 1000 nM | 102
sgRNA knockout: sgXBP1, 10000 nM | 45.5

Source: the supplement of paper PMC7661543
